PubChem BioAssay AID686943 – Drosophila RNAi Screening Center – 2013

Aim: 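Knockdowns that increase or decrease active ERK after insulin receptor stimulation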 (primary screen)
System: Drosophila S2R+ haemocyte-like cells expressing YFP-tagged ERK (Rolled)
Reagents: long dsRNA against Drosophila genes
Treatment: insulin stimulation versus unstimulated cells; dose and duration not given
Read-out: 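Antibody staining for doubly phosphorylated ERK divided by ERK-YFP signal, as plate z-scores, in insulin-treated and untreated cells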
Scale: replicate 1, z-score of dpERK with insulin and replicate 2, z-score of dpERK with insulin: higher = more active ERK per ERK-YFP after insulin
In all, the deposit lists about 23,000 reagents; shown is a random part of those with a known target gene and a result. 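Extra replicates exist only for a retested subset of genes; insulin dose and duration not given; both raised and lowered dpERK matter.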 The numbers tell different reagents against one gene apart. Further read-outs or replicates are left out here. Reagent sequences are not shown. Not given: the amount of reagent, the time to read-out.

predicted target	reagent	replicate 1, z-score of dpERK with insulin	replicate 2, z-score of dpERK with insulin
CG34268 (GeneID 5740141)	1	1	0.48
Vm26Ab (GeneID 33827)	1	0.3	0.55
Obp99a (GeneID 43488)	1	-0.94	0
Arv1 (GeneID 318031)	1	-0.39	1.78
halo (GeneID 33334)	1	0.83	0.54
Obp28a (GeneID 34031)	1	-1.63	-0.33
Snx27 (GeneID 31493)	1	-0.15	0.3
Snx27 (GeneID 31493)	2	0.44	-0.02
Snx27 (GeneID 31493)	3	0.04	-0.21
CG18528 (GeneID 42906)	1	0.17	0
CG31680 (GeneID 318881)	1	-1.04	-0.41
CG32189 (GeneID 317902)	1	-0.24	0.94
CG31145 (GeneID 42784)	1	-0.04	0.23
CG31145 (GeneID 42784)	2	0.44	0.21
CG31145 (GeneID 42784)	3	-0.32	-3.42
CG31145 (GeneID 42784)	4	0.32	-0.11
Gyc89Db (GeneID 42002)	1	-0.07	0.1
SmF (GeneID 36314)	1	0.14	1.36
PIG-F (GeneID 40139)	1	1.1	0.37
TotM (GeneID 33764)	1	-0.09	-0.61
wmd (GeneID 37727)	1	-0.33	-1.49
Irp-1A (GeneID 42689)	1	0.3	0.23
kirre (GeneID 31292)	1	-0.25	-0.25
